Reference: patent publication US20120316071A1
Numbering of substitutions follows the chain as printed. Names and notes keep the numbering of the source. Results are given in words; binding and its absence hold for the method and conditions named. Some binding calls cover weakened binding; strength is not graded here.

The chains behind the UniProt entries cited, without tags or fusion partners. Where a name states a change or a piece, a line headed by the entry shows the natural chain unless it says otherwise.
UniProt Q9NR61: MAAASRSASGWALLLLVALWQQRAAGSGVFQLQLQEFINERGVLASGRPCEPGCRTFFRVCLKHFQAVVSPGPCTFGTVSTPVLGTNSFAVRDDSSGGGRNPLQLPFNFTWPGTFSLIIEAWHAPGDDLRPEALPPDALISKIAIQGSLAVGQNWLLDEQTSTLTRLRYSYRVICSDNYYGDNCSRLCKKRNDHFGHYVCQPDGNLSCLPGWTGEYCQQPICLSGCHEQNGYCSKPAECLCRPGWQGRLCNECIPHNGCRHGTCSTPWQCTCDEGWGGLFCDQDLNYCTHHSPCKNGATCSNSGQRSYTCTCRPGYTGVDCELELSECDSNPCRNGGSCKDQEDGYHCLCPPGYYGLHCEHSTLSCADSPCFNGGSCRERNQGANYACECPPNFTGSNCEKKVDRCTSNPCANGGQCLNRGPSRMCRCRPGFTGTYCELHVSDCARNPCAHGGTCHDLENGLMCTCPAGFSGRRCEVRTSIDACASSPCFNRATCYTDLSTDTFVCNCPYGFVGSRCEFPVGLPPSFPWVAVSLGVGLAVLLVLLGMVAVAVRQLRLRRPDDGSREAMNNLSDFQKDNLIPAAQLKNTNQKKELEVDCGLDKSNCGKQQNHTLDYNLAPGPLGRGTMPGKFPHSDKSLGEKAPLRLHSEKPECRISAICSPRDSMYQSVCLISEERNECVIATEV

B1: Fab VH5-51_IGHD5-18*01>3_IGHJ4*01 G100K/G104T (H:KT) & V3-4_IGLJ1*01 S52A/A116T (Fab, V domains shown)
VH: EVQLVQSGAEVKKPGESLKISCKGSGYSFTSYWIGWVRQMPGKGLEWMGIIYPGDSDTRYSPSFQGQVTISADKSISTAYLQWSSLKASDTAMYYCARRKYSYTYDYFDYWGQGTLVTVSS
VL: QTVVTQEPSFSVSPGGTVTLTCGLASGSVSTSYYPSWYQQTPGQAPRTLIYSTNTRSSGVPDRFSGSILGNKAALTITGAQADDESDYYCVLYMGSGISYVFGTGTKVTVLG
B2: Fab H:KT TRV & V3-4_IGLJ1*01 V91L/S96P S52H (Fab, V domains shown)
VH: B1 VH with G24T, S28R, G35V
VL: QTVVTQEPSFSVSPGGTVTLTCGLSSGSVSTSYYPSWYQQTPGQAPRTLIYHTNTRSSGVPDRFSGSILGNKAALTITGAQADDESDYYCLLYMGPGISYVFGTGTKVTVL

How the values were obtained:
[1] = biological target: Recombinant Human DLL4 (R&D Systems Cat#1506-D4/CF) (human) (UniProt Q9NR61); assay: ECL
[2] = biological target: Recombinant Human DLL4 (R&D Systems Cat#1506-D4/CF) (human) (UniProt Q9NR61); assay: ELISA, 100 nM Fab
[3] = biological target: Recombinant Human DLL4 (R&D Systems Cat#1506-D4/CF) (human) (UniProt Q9NR61); assay: ELISA titration, 2-fold dilutions from 100 nM Fab

| Binder | binding [1] | binding [2] | binding [3] |
| --- | --- | --- | --- |
| B1 | binds |  |  |
| B2 |  | binds | binds |
